# From PubChem BioAssay AID1259415 (National Center for Advancing Translational Sciences (NCATS), 2018)
# Where “and” joins values, the source holds several entries; their conditions need not be identical. Equal values may be shown once. The campaign covered roughly 410,000 compounds. About 18,000 (4.4%) were called active. Inconclusive means that the source gave no clear call. Such entries were picked first, then a sample of the others. Rule as the data show it: active = activity change below about -60%; inconclusive = no clear call, values can overlap the other calls; inactive = above about -39%.
# Assay: qHTS Assay for inhibitors of the human cytomegalovirus (HCMV)
# Conditions: HFF cells, HCMV-luciferase reporter, 72 h; at 57.5 µM; active compounds read low
# In short: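 Cell-based, HFFs, 1000 cells/well, 16 h 37C; cpds in DMSO + HCMV-luc, MOI 1 PFU/cell; 72 h 37C; OneGlo luminescence after 5 min RT; norm. to buffer vs Salinomycin 10uM.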
# % is scaled to controls: 0 for no effect and ±100 for the full control effect.
row,SMILES,"activity change, negative = inhibition"
1,CCC(Cc1ccccc1)NC(=O)CSc1ccsc1[N+](=O)[O-] (configuration not stated),inconclusive: -60%
2,Cc1cc(C)n2nc(C(=O)N3CCCC(Nc4ccc(C(C)C)cc4)C3)cc2n1 (configuration not stated),inconclusive: -42%
3,O=C(c1cc2c(=O)n3ccccc3nc2s1)N1CCN(Cc2ccc3c(c2)OCO3)CC1,inconclusive: -51.7%
4,Nc1nc2ccccc2cc1C(=O)NCc1cccs1,inconclusive: -53.1%
5,O=C(CN1C(=O)CCSc2ccccc21)NC1CCCCC1,inconclusive: -46.1%
6,O=C(Cn1c(=O)n(Cc2ccccc2)c(=O)c2sc3ccccc3c21)Nc1ccccc1,inconclusive: -55.5%
7,Cc1ccc(/C=N/NC(=O)COc2ccccc2-c2ccccc2)cc1,active: -81.9%
8,COc1ccc(CNS(=O)(=O)c2cc3c4c(c2)C(C)C(=O)N4CCC3)cc1 (configuration not stated),inconclusive: -47.2%
9,O=c1c2ccccc2nc2n1CCN2Cc1ccc(Cl)cc1,active: -88.4%
10,O=C(CSc1nnc(SCc2ccccc2)s1)N/N=C/c1ccc(Cl)cc1Cl,inconclusive: -54.5%
11,COc1ccc2c(C)cc(Sc3nnnn3-c3ccccc3)nc2c1,active: -101%
12,COc1cccc(N2CCN(C(=O)c3ccc(CS(=O)c4ccccc4C)o3)CC2)c1 (configuration not stated),inactive: -39%
13,CN1CCN(C(=O)CNC(=O)c2cccs2)CC1,inactive: 29.3%
14,NC(N)=NC(N)=Nc1ccc2ccccc2c1,active: -69.3%
15,Cc1cccc(N(CC(O)CON=C2c3ccccc3-c3ccccc32)S(C)(=O)=O)c1 (configuration not stated),inconclusive: -56.7%
16,CCNC(=S)N/N=C/c1c(C)nn(-c2cccc(Cl)c2)c1Cl,inconclusive: -53.5%
17,COc1ccccc1CNC(=O)Cn1c(=O)c2cccn2c2cccnc21,inconclusive: -47%
18,CCOC(=O)C1=CN(Cc2cccc(F)c2)S(=O)(=O)N(CC)C1c1ccc(Br)cc1F (configuration not stated),inconclusive: -44.7%
19,COc1ccc(Nc2oc(COc3ccccc3F)nc2C#N)cc1,inconclusive: -47.3%
20,N#Cc1nc(-c2ccc(COc3ccc(Cl)cc3)o2)oc1N1CCC(C(N)=O)CC1,active: -64.7%
21,NC1=NC(c2ccc(Cl)cc2)N(c2ccc(S(N)(=O)=O)cc2)C(N)=N1 (configuration not stated),inactive: -1.74%
22,O=C(CSc1nc(C2CC2)nc2ccccc12)Nc1ccccc1,inactive: -35.7%

row,SMILES,"activity change, negative = inhibition"
1,CCC(C)c1ccc(N(CC(=O)NC(C)(C)C)C(=O)CNC(=O)c2cccs2)cc1 (configuration not stated),inconclusive: -42.4%
2,COc1cccc(-n2cnc3cccc(N)c32)c1,inconclusive: -59.4%
3,COc1cc2nc(CN3CCN(S(=O)(=O)c4ccc(Cl)cc4)CC3)[nH]c(=O)c2cc1OC,inconclusive: -48.9%
4,CC(=O)NS(=O)(=O)c1cccnc1Nc1cccc(Cl)c1C,inconclusive: -42.1%
5,CC(=O)c1cc(-c2ccccc2)n(CC(=O)Nc2ccc(C)c(C)c2)c1C,inactive: 11.9% and inactive: 0%
6,Cc1cccc(C)c1NC(=O)CCCSc1nnc(N)s1,inconclusive: -44.6%
7,O=C(COc1ccccc1Cl)Nc1ccc(S(=O)(=O)Nc2ccccn2)cc1,inconclusive: -57.2%
8,S=C(NCCCc1ccccc1)NC1CCCCC1,inconclusive: -54.1%
9,COc1ccc(-c2nc(CS(=O)(=O)CC(=O)NCCc3ccc(C)cc3)c(C)o2)cc1,inconclusive: -54.7%
10,FC(F)Oc1ccc(NC(=S)NCC2COc3ccccc3O2)cc1 (configuration not stated),inconclusive: -41.3%
11,COc1ccc(/C=N/NC(=O)c2cc(-c3cccc(C)c3)nc3ccccc23)cc1O,inconclusive: -52.9%
12,O=C(COC(=O)/C=C/c1cccc(Cl)c1)Nc1c(F)cccc1F,inconclusive: -48.7%
13,Clc1ccc(/C=N/Nc2nnc(Cl)c3ccccc23)cc1,inactive: 119%
14,COc1cccc2c1C(=O)c1c(O)c3c(c(O)c1C2=O)CC(O)(C(C)=NNC(=O)c1ccc(Cl)c(Cl)c1)CC3OC1CC(N)C(O)C(C)O1 (configuration not stated),active: -99%
15,COc1ccc(NS(=O)(=O)c2ccc(N3CCCC3=O)cc2)cn1,inconclusive: -43.2%
16,Cc1cc(S(=O)(=O)Nc2ccc(C(=O)NCC(c3ccccc3)N(C)C)cc2)ccc1F (configuration not stated),inconclusive: -48.2%
17,Cc1cccc(S(=O)(=O)c2c(N)n(/N=C/c3cccnc3)c3nc4ccccc4nc23)c1,inconclusive: -48.6%
18,COc1ccc(NC(=O)C2CCN(S(=O)(=O)c3c(C)noc3C)CC2)cc1Cl,inconclusive: -49.9%
19,Cc1ccc(N2CCN(C(=O)c3cc4cc5ccc(C)cc5nc4s3)CC2C)cc1 (configuration not stated),inactive: 1.03%
20,COc1ccc(S(=O)(=O)Nc2ccccc2C(=O)NC2CC2)cc1NC(C)=O,inactive: 31%
21,Cc1noc(C)c1CCC(=O)NC1CCCN(Cc2ccc(CC(C)C)cc2)C1 (configuration not stated),inactive: 0%
22,COc1ccc2[nH]c(=O)c(CN(C(=O)c3cccnc3)c3ccc(C)c(C)c3)cc2c1,inconclusive: -42.2%

# 13 compounds from above, ordered by count of non-hydrogen atoms, low to high.
row,SMILES,"activity change, negative = inhibition"
2,COc1cccc(-n2cnc3cccc(N)c32)c1,inconclusive: -59.4%
8,S=C(NCCCc1ccccc1)NC1CCCCC1,inconclusive: -54.1%
6,Cc1cccc(C)c1NC(=O)CCCSc1nnc(N)s1,inconclusive: -44.6%
4,CC(=O)NS(=O)(=O)c1cccnc1Nc1cccc(Cl)c1C,inconclusive: -42.1%
15,COc1ccc(NS(=O)(=O)c2ccc(N3CCCC3=O)cc2)cn1,inconclusive: -43.2%
10,FC(F)Oc1ccc(NC(=S)NCC2COc3ccccc3O2)cc1 (configuration not stated),inconclusive: -41.3%
5,CC(=O)c1cc(-c2ccccc2)n(CC(=O)Nc2ccc(C)c(C)c2)c1C,inactive: 11.9% and inactive: 0%
7,O=C(COc1ccccc1Cl)Nc1ccc(S(=O)(=O)Nc2ccccn2)cc1,inconclusive: -57.2%
21,Cc1noc(C)c1CCC(=O)NC1CCCN(Cc2ccc(CC(C)C)cc2)C1 (configuration not stated),inactive: 0%
1,CCC(C)c1ccc(N(CC(=O)NC(C)(C)C)C(=O)CNC(=O)c2cccs2)cc1 (configuration not stated),inconclusive: -42.4%
22,COc1ccc2[nH]c(=O)c(CN(C(=O)c3cccnc3)c3ccc(C)c(C)c3)cc2c1,inconclusive: -42.2%
17,Cc1cccc(S(=O)(=O)c2c(N)n(/N=C/c3cccnc3)c3nc4ccccc4nc23)c1,inconclusive: -48.6%
14,COc1cccc2c1C(=O)c1c(O)c3c(c(O)c1C2=O)CC(O)(C(C)=NNC(=O)c1ccc(Cl)c(Cl)c1)CC3OC1CC(N)C(O)C(C)O1 (configuration not stated),active: -99%

# The list goes on:

row,SMILES,"activity change, negative = inhibition"
1,Cc1ccc(N(C(=O)Cn2nnc(-c3ccccc3F)n2)C(C(=O)NC2CCCC2)c2ccncc2)cc1 (configuration not stated),inconclusive: -56.4%
2,Cc1ccccc1Cn1nnc(-c2ccc(F)cc2)n1,active: -75.2%
3,O=C(Nc1ccc(F)cc1)C1C2CCC3C(CCC21)C3(Cl)Cl (configuration not stated),inconclusive: -58.5%
4,O=C(/C=C/c1ccco1)NC(=S)Nc1ccc(O)c(-c2nc3ccccc3s2)c1,inconclusive: -56.4%
5,COc1cc(CN2CCNCC2)cc(OC)c1OC,inactive: 30.5%
6,Cc1ccc(-n2c(C)nc3c(cnn3-c3ccc(C)c(C)c3)c2=O)cc1C,active: -66.5%
7,Cc1ccc(OCC(=O)Nc2ccccc2N2CCOCC2)c(C)c1,inconclusive: -56.1%
8,COc1ccc(-c2noc(CN(C(=O)C(C)Oc3ccc(C)cc3)C(C)C)n2)cc1 (configuration not stated),inconclusive: -58.2%
9,CC(=O)O[C@]1(C(C)=O)CC[C@H]2[C@@H]3C=C(Cl)C4=CC(=O)CC[C@]4(C)[C@H]3CC[C@@]21C,inconclusive: -52.3%
10,O=C(CCNC(=O)OCc1ccccc1)NC1CCCCC1,inconclusive: -41.2%
11,CCOC(=O)N1CCc2c(sc3c2c(=O)n(Cc2ccccc2)c(=O)n3CC(=O)NCCOC)C1,inconclusive: -47.4%
12,Cc1nn(-c2ccccc2)c(Cl)c1/C=N/NC(N)=O,inactive: 37.9%
13,CCCc1ccc(OCC(=O)NNC(=O)c2cccnc2)cc1,inconclusive: -47.8%
14,COc1ccc(NC(=O)c2nc[nH]c2C(=O)N2CCC(C)CC2)cc1,inconclusive: -55.4%
15,CC(=O)Nc1ccc(S(=O)(=O)N(C)CC(=O)OCC(=O)N2CCCCCC2)cc1,inconclusive: -54%
16,COC(=O)c1ccc(NC(=O)c2ccc3c(c2)OCO3)cc1,inactive: 16.1%
17,CCCCN1C(=O)C(=O)N(CC(=O)c2cc(C)n(C3CC3)c2C)C1=O,inactive: 13.6%
18,Cc1ccc(C)c(NC(=O)Cn2cc(S(=O)(=O)Cc3cccc(Cl)c3)c3ccccc32)c1,inconclusive: 0%
19,Cc1ccc(C)c(C(=O)COc2ccccc2[N+](=O)[O-])c1,inactive: -7.11%
20,CCOC(=O)c1c(NC(=O)C2COc3ccccc3O2)sc(C(C)=O)c1C (configuration not stated),inconclusive: -58.1%
21,O=C(c1cnc(N2CCN(c3ncccn3)CC2)c2ccccc12)N1CCN(c2ccccn2)CC1,inconclusive: -40.7%
22,COc1ccc(CCNC(=O)CCc2nnc(Cc3ccc4c(c3)OCO4)o2)c(OC)c1,inconclusive: -46.4%

row,SMILES,"activity change, negative = inhibition"
1,O=C(COC(=O)c1cccc(NS(=O)(=O)c2ccc(F)c(F)c2)c1)NC(=O)NC1CCCC1,inconclusive: -40%
2,CCCN1CNC(=S)N(c2ccccc2C)C1,inconclusive: -51.3%
3,C[C@H](N)C(=O)NC[C@H]1O[C@@H](n2cnc3c(N)ncnc32)[C@H](O)[C@@H]1O,active: -74.6%
4,CC(=O)N1CCN(c2ccc(NCc3ccc(-c4ccc(Br)cc4)o3)cc2)CC1,active: -80.1%
5,CCC(C)(C)NC(=O)C(c1ccc(OC)cc1)N(CCOC)C(=O)CCC(=O)Nc1nccs1 (configuration not stated),inactive: -28.8%
6,COc1ccc(NC(=O)c2nc(S(=O)(=O)Cc3cccc(C)c3)ncc2Cl)c(OC)c1,active: -79.5%
7,N=C1S/C(=C\c2ccco2)C(=O)N1c1ccc2c(c1)OCO2,inconclusive: -52.2%
8,O=C(O)C(CO)(c1ccccc1)c1ccccc1,inactive: 63.8%
9,Fc1cccc(NC(=S)NCc2ccccc2Cl)c1,inconclusive: -52.5%
10,COc1ccc(OC)c(N2C(=O)CC(=O)NC2=O)c1,inconclusive: 0%
11,COc1ccc(-c2cc(-c3ccccc3)c(C#N)c(SCC(=O)O)n2)cc1,inconclusive: -43.2%
12,O=C(Nc1ccc(OC(F)(F)F)cc1)Nc1cccc([N+](=O)[O-])c1,active: -104%
13,Cc1cc(-c2cc(-c3ccccc3)on2)nc(NC2CCCC2)n1,inconclusive: -50.1%
14,COC(=O)CN1C(c2ccccc2)=Nc2ccc(Cl)cc2C1c1ccccc1 (configuration not stated),inactive: 26.7%
15,CSc1nc(-c2ccc(C)cc2)[nH]c1S(=O)(=O)c1ccccc1,inconclusive: -53.6%
16,COc1ccc2cc3cc(C(=O)NCC4CCCO4)oc3nc2c1 (configuration not stated),inactive: -5.86%
17,Cc1cc(NC(=O)c2cc(C(C)C)on2)nn1Cc1ccc(Cl)cc1,inactive: -21.1%
18,CCc1ccc(C(=O)NCC2COc3ccccc3O2)o1 (configuration not stated),inactive: 21.2%
19,CCC(C)n1c(SCc2ccccc2)nc2ccsc2c1=O (configuration not stated),inconclusive: -46%
20,COc1ccccc1C1CC(=O)NC(C)=C1C(=O)OC(C)C (configuration not stated),inactive: -10.4%
21,N#C/C(=N\Nc1cccc(C(F)(F)F)c1)C(=O)c1ccsc1,active: -97%

# Some of these compounds in order of molecular weight, rising:
row,SMILES,"activity change, negative = inhibition"
19,Cc1ccc(N2CCN(C(=O)c3cc4cc5ccc(C)cc5nc4s3)CC2C)cc1 (configuration not stated),inactive: 1.03%
4,CC(=O)N1CCN(c2ccc(NCc3ccc(-c4ccc(Br)cc4)o3)cc2)CC1,active: -80.1%
18,CCOC(=O)C1=CN(Cc2cccc(F)c2)S(=O)(=O)N(CC)C1c1ccc(Br)cc1F (configuration not stated),inconclusive: -44.7%
